# Cleaved PARP after 72 h of treatment

Source: doi:10.1371/journal.pone.0140310, primary screening data, rounded.

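Human melanoma cell lines in 1,536-well plates were treated with a pair of drugs for 72 h, then fixed, stained and imaged. Values are the share of nuclei positive for cleaved PARP as a percentage of the same share in the DMSO control: 100 is the control level, higher means more apoptosis. Concentrations were fixed for each drug; these are the higher of two levels. These are primary screening values without error estimates. The marker varies much from line to line, for technical or biological reasons.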 An unselected part of the screen is shown. An entry leaves out what has no value listed here. A dash means that no value is listed here.

Compounds and concentrations:
vatalanib: Clc1ccc(Nc2nnc(Cc3ccncc3)c3ccccc23)cc1 at 10 µM
STA-4783: CN(NC(=O)CC(=O)NN(C)C(=S)c1ccccc1)C(=S)c1ccccc1 at 0.03 µM
enzastaurin: Cn1cc(C2=C(c3cn(C4CCN(Cc5ccccn5)CC4)c4ccccc34)C(=O)NC2=O)c2ccccc21 at 4 µM
GSK650394: O=C(O)c1ccc(-c2c[nH]c3ncc(-c4ccccc4)cc23)cc1C1CCCC1 at 0.8 µM
sorafenib: CNC(=O)c1cc(Oc2ccc(NC(=O)Nc3ccc(Cl)c(C(F)(F)F)c3)cc2)ccn1 at 2 µM

Cell line,vatalanib + sorafenib,sorafenib + STA-4783,STA-4783 + enzastaurin,enzastaurin + sorafenib,enzastaurin + vatalanib,vatalanib + GSK650394,sorafenib + GSK650394,vatalanib + STA-4783
WM115,80.7,2410,2280,194,88.4,208,51.1,3110
A2058,172,4100,562,195,257,174,119,1310
G-361,60.6,509,377,208,182,227,211,545
SK-MEL-28,139,511,235,266,546,149,108,90.0
COLO 792,102,261,320,82.3,191,34.6,117,287
IPC-298,58.6,175,125,54.5,31.1,108,36.6,33.7
WM3526,123,443,133,130,141,484,117,79.4
MZ2-MEL,24.4,113,200,84.6,106,126,55.4,214
WM451Lu,127,139,65.5,49.6,93.2,277,118,40.6
UACC-257,257,89.0,26.6,49.5,245,199,38.9,74.9
MeWo,95.2,4980,1770,81.4,45.6,294,139,1390
SK-MEL-30,86.4,206,75.3,144,128,132,46.3,166
COLO 800,58.2,179,315,117,68.1,136,42.2,88.4
IST-MEL1,158,1840,173,92.2,254,42.4,97.5,122
WM3619,120,849,1360,93.1,172,95.8,106,482
C32,281,1800,1610,48.1,190,113,85.6,2090
SK-MEL-2,108,358,78.0,594,218,74.1,94.7,38.6
COLO 829,97.4,219,494,83.2,194,105,95.9,223
RVH-421,379,171,453,172,294,139,211,23.6
UACC-62,217,170,125,91.9,432,146,101,169
RPMI-7951,116,104,57.4,435,91.2,181,51.1,131
WM1716,79.9,1430,119,142,353,246,58.1,2940
SK-MEL-5,153,657,89.6,122,229,83.9,23.1,251
LOX IMVI,74.8,64.7,216,62.2,323,27.2,95.0,23.0
A375,102,-,-,122,26.4,-,-,-
LB2518-MEL,66.1,904,301,431,112,102,107,138
MEL-HO,137,179,91.4,180,58.7,52.9,86.6,137
A101D,146,152,236,93.2,102,64.2,114,270
WM1745,305,339,2400,151,128,270,97.3,155

For reference, 2 entries once more:

{"cell line": "C32", "vatalanib + sorafenib": 281, "sorafenib + STA-4783": 1800, "STA-4783 + enzastaurin": 1610, "enzastaurin + sorafenib": 48.1, "enzastaurin + vatalanib": 190, "vatalanib + GSK650394": 113, "sorafenib + GSK650394": 85.6, "vatalanib + STA-4783": 2090}
{"cell line": "SK-MEL-28", "vatalanib + sorafenib": 139, "sorafenib + STA-4783": 511, "STA-4783 + enzastaurin": 235, "enzastaurin + sorafenib": 266, "enzastaurin + vatalanib": 546, "vatalanib + GSK650394": 149, "sorafenib + GSK650394": 108, "vatalanib + STA-4783": 90.0}